Our source for the synaptosome phagocytosis values is the supplement of paper PMC10689618.

The other results are listed elsewhere or left out. Repeats are few or missing, and single values can be far off.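 Labelled rat cortical synaptosomes were engulfed by primary human fetal astrocytes. Engulfment equaled a red/green ratio, corrected for calcein live-cell signal and normalized to the plate median. Compounds were toxic when calcein dropped over 30%, and reduced phagocytosis when below 70% of the median above 5 µM.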

The first assay concerns Human fetal astrocytes. Kind of assay: synaptosome phagocytosis (pHrodo/calcein intensity ratio) relative to plate median of data wells; higher = more phagocytosis. The settings on record: 11.11 µM; 24 h.
On to `C[C@@H]1CC[C@@]2(OC1)O[C@H]1C[C@H]3[C@@H]4CC[C@H]5C[C@@H](O)CC[C@]5(C)[C@H]4CC[C@]3(C)[C@H]1[C@@H]2C`, for which the synaptosome phagocytosis is 124%.

Take `c1coc(CNc2ncnc3[nH]cnc23)c1`: the synaptosome phagocytosis is 86.3%.

`OC(c1cc(C(F)(F)F)nc2c(C(F)(F)F)cccc12)C1CCCCN1` (stereo not drawn): the synaptosome phagocytosis is 59.9%.

Take `Oc1c(Cl)cc(Cl)c(Cl)c1Cc1c(O)c(Cl)cc(Cl)c1Cl`: the synaptosome phagocytosis is 6.6%.

Consider `O=C(O)CCCC[C@@H]1SC[C@@H]2NC(=O)N[C@@H]21`, for which the synaptosome phagocytosis was 99%.

For the molecule `O=c1cc(-c2ccc(O)c(O)c2)oc2cc(O)cc(O)c12`, the synaptosome phagocytosis is 121%.

For `CCC(CCC(C)C1CCC2C3CCC4CC(O)CCC4(C)C3CCC12C)C(C)C` (stereo not drawn), the synaptosome phagocytosis is 130%.

For the molecule `Nc1nc(=S)c2ncn([C@@H]3O[C@H](CO)[C@@H](O)[C@H]3O)c2[nH]1`, the synaptosome phagocytosis was 22.8%.

On to `C=CC(C1=CC(=O)C(OC)=CC1=O)c1ccc(O)cc1` (stereo not drawn), for which the synaptosome phagocytosis was 130%.

Consider `O=C1C(CC[S+]([O-])c2ccccc2)C(=O)N(c2ccccc2)N1c1ccccc1` (stereo not drawn), for which the synaptosome phagocytosis is 116%.

For `CN1CCCN=C1/C=C/c1cccc(O)c1`, the synaptosome phagocytosis was 90.1%.

As to `O=C(O)c1ccc(S(=O)(=O)N(Cl)Cl)cc1`, the synaptosome phagocytosis was 113%.

With `COc1ccc(-c2cc(=O)c3c(OC)c(OC)c(OC)c(OC)c3o2)cc1`, the synaptosome phagocytosis was 107%.

Consider `COc1ccc2oc(-c3ccccc3)c(OC)c(=O)c2c1`, for which the synaptosome phagocytosis is 71%.

In the case of `CN1CCc2c(c3ccccc3n2Cc2ccccc2)C1`, the synaptosome phagocytosis is 64.4%.

Consider `CC[C@@]1(O)C(=O)OCc2c1cc1n(c2=O)Cc2cc3c(CN(C)C)c(O)ccc3nc2-1`, for which the synaptosome phagocytosis was 112%.

Regarding `N=C(N)NCCN1CCCCCCC1`, the synaptosome phagocytosis is 85.1%.

Take `N[C@@H](COCc1ccccc1)C(=O)O`: the synaptosome phagocytosis is 111%.

Regarding `CCOC(=O)[C@H](CCc1ccccc1)N[C@@H](C)C(=O)N1CCC[C@H]1C(=O)O`, the synaptosome phagocytosis was 101%.

On to `COC(=O)C[C@H]1C(C)(C)[C@@H](O)[C@@H]2CC3=C4C=C(OC)O[C@@H](c5ccoc5)[C@]4(C)CCC3[C@@]1(C)C2=O` (stereo partly drawn) [3-DEOXO-3beta-HYDROXYMEXICANOLIDE 16-ENOL ETHER], for which the synaptosome phagocytosis was 92%.

Consider `CN1CCN(C(c2ccccc2)c2ccccc2)CC1`, for which the synaptosome phagocytosis was 75%.

In the case of `N[C@@H](CCC(=O)N[C@@H](CSC(CC(=O)O)C(=O)O)C(=O)NCC(=O)O)C(=O)O` (stereo partly drawn), the synaptosome phagocytosis is 119%.

Consider `Cc1ccc(S(=O)(=O)NC(=O)NN2CC3CCCC3C2)cc1` (stereo not drawn), for which the synaptosome phagocytosis was 141%.

Consider `CC[C@H]1OC(=O)C[C@@H](O)[C@H](C)[C@@H](O[C@@H]2O[C@H](C)[C@@H](O)[C@H](N(C)C)[C@H]2O)[C@@H](CCN2C[C@H](C)C[C@H](C)C2)C[C@@H](C)C(=O)/C=C/C(C)=C/[C@@H]1CO[C@@H]1O[C@H](C)[C@@H](O)[C@@H](OC)[C@H]1OC`, for which the synaptosome phagocytosis is 72.1%.

Take `Nc1ccccc1S(N)(=O)=O`: the synaptosome phagocytosis was 114%.

Turning to `O=c1c(O)cc([C@H]2Oc3cc(O)cc(O)c3C[C@H]2O)cc2c([C@H]3Oc4cc(O)cc(O)c4C[C@H]3O)cc(O)c(O)c12`, the synaptosome phagocytosis is 96.1%.

In the case of `Cc1nc(C)c(Cl)c(O)c1Cl`, the synaptosome phagocytosis is 149%.

For the molecule `CC(=O)O[C@H]1CC[C@]2(C)[C@H]3CC=C4[C@@H]5CC(C)(C)CC[C@]5(C)CC[C@@]4(C)[C@]3(C)CC[C@H]2C1(C)C` [beta-AMYRIN ACETATE], the synaptosome phagocytosis was 70.1%.

Take `C#C[C@]1(OC(C)=O)CC[C@H]2[C@@H]3CCC4=C[C@@H](OC(C)=O)CC[C@@H]4[C@H]3CC[C@@]21C`: the synaptosome phagocytosis is 60.3%.

For `CC(CCC(=O)O)[C@H]1CCC2C3CC[C@@H]4CC(=O)CC[C@]4(C)C3C=C[C@@]21C` (stereo partly drawn), the synaptosome phagocytosis was 124%.

On to `CCOC(=O)[N-]c1c[n+](N2CCOCC2)no1` [Molsidomine], for which the synaptosome phagocytosis is 86.6%.

`CN(C(=O)CN(CCO)CC(=O)N(C)C(C)(C)Cc1ccccc1)C(C)(C)Cc1ccccc1`: the synaptosome phagocytosis is 144%.

For `COc1ccc(CN(CCN(C)C)c2ncccn2)cc1`, the synaptosome phagocytosis is 126%.

Turning to `C[N+](C)(C)CCOP(=O)(O)OP(=O)([O-])OC[C@H]1O[C@@H](n2ccc(N)nc2=O)[C@H](O)[C@@H]1O`, the synaptosome phagocytosis was 144%.

For the molecule `OC[C@H]1O[C@@](CO)(O[C@H]2O[C@H](CO)[C@@H](O)[C@H](O)[C@H]2O)[C@@H](O[C@H]2O[C@H](CO)[C@@H](O)[C@H](O)[C@H]2O)[C@@H]1O`, the synaptosome phagocytosis was 130%.

For the molecule `CC(C)/C(O)=C1/C(=O)O[C@@H](c2ccoc2)[C@]2(C)C(O)[C@@H](O)[C@@]34OC5(C)OC67CC(C)(C(O)[C@]6(O)[C@@H](O)[C@]3(O5)C12)[C@H](CC(=O)O)[C@]74C` (stereo partly drawn), the synaptosome phagocytosis was 77%.

`CCN1CCCC(OC(=O)C(c2ccccc2)c2ccccc2)C1` (stereo not drawn): the synaptosome phagocytosis was 90%.

As to `Cc1cc(C)nc(NS(=O)(=O)c2ccc(N)cc2)n1`, the synaptosome phagocytosis was 124%.

Turning to `C=C1C(=O)[C@]23[C@H](CC[C@@H]1[C@@H]2O)[C@]12CO[C@@]3(O)[C@H](O)[C@H]1C(C)(C)CC[C@@H]2O`, the synaptosome phagocytosis is 67.3%.

The assay is the same for the next values; noted with them: 22.22 µM; 24 h.
As to `C[C@@H]1CC[C@@]2(OC1)O[C@H]1C[C@H]3[C@@H]4CC[C@H]5C[C@@H](O)CC[C@]5(C)[C@H]4CC[C@]3(C)[C@H]1[C@@H]2C`, the synaptosome phagocytosis was 111%.

Take `c1coc(CNc2ncnc3[nH]cnc23)c1`: the synaptosome phagocytosis was 141%.

Regarding `OC(c1cc(C(F)(F)F)nc2c(C(F)(F)F)cccc12)C1CCCCN1` (stereo not drawn), the synaptosome phagocytosis was 31.8%.

In the case of `Oc1c(Cl)cc(Cl)c(Cl)c1Cc1c(O)c(Cl)cc(Cl)c1Cl`, the synaptosome phagocytosis was 0%.

For the molecule `O=C(O)CCCC[C@@H]1SC[C@@H]2NC(=O)N[C@@H]21`, the synaptosome phagocytosis was 118%.

For the molecule `O=c1cc(-c2ccc(O)c(O)c2)oc2cc(O)cc(O)c12`, the synaptosome phagocytosis was 109%.

`CCC(CCC(C)C1CCC2C3CCC4CC(O)CCC4(C)C3CCC12C)C(C)C` (stereo not drawn): the synaptosome phagocytosis was 139%.

With `Nc1nc(=S)c2ncn([C@@H]3O[C@H](CO)[C@@H](O)[C@H]3O)c2[nH]1`, the synaptosome phagocytosis is 25.1%.

Regarding `C=CC(C1=CC(=O)C(OC)=CC1=O)c1ccc(O)cc1` (stereo not drawn), the synaptosome phagocytosis is 66.9%.

Turning to `O=C1C(CC[S+]([O-])c2ccccc2)C(=O)N(c2ccccc2)N1c1ccccc1` (stereo not drawn), the synaptosome phagocytosis is 122%.

In the case of `CN1CCCN=C1/C=C/c1cccc(O)c1`, the synaptosome phagocytosis is 124%.

`O=C(O)c1ccc(S(=O)(=O)N(Cl)Cl)cc1`: the synaptosome phagocytosis was 101%.

`COc1ccc(-c2cc(=O)c3c(OC)c(OC)c(OC)c(OC)c3o2)cc1`: the synaptosome phagocytosis was 110%.

For the molecule `COc1ccc2oc(-c3ccccc3)c(OC)c(=O)c2c1`, the synaptosome phagocytosis is 94.6%.

As for `CN1CCc2c(c3ccccc3n2Cc2ccccc2)C1`, the synaptosome phagocytosis is 30.8%.

For `CC[C@@]1(O)C(=O)OCc2c1cc1n(c2=O)Cc2cc3c(CN(C)C)c(O)ccc3nc2-1`, the synaptosome phagocytosis was 88.7%.

For the molecule `N=C(N)NCCN1CCCCCCC1`, the synaptosome phagocytosis was 101%.

For the molecule `N[C@@H](COCc1ccccc1)C(=O)O`, the synaptosome phagocytosis is 105%.

Turning to `CCOC(=O)[C@H](CCc1ccccc1)N[C@@H](C)C(=O)N1CCC[C@H]1C(=O)O`, the synaptosome phagocytosis was 82.3%.

For the molecule `COC(=O)C[C@H]1C(C)(C)[C@@H](O)[C@@H]2CC3=C4C=C(OC)O[C@@H](c5ccoc5)[C@]4(C)CCC3[C@@]1(C)C2=O` (stereo partly drawn) [3-DEOXO-3beta-HYDROXYMEXICANOLIDE 16-ENOL ETHER], the synaptosome phagocytosis was 117%.

Consider `CN1CCN(C(c2ccccc2)c2ccccc2)CC1`, for which the synaptosome phagocytosis is 103%.

`N[C@@H](CCC(=O)N[C@@H](CSC(CC(=O)O)C(=O)O)C(=O)NCC(=O)O)C(=O)O` (stereo partly drawn): the synaptosome phagocytosis was 119%.

Take `Cc1ccc(S(=O)(=O)NC(=O)NN2CC3CCCC3C2)cc1` (stereo not drawn): the synaptosome phagocytosis is 151%.

Take `CC[C@H]1OC(=O)C[C@@H](O)[C@H](C)[C@@H](O[C@@H]2O[C@H](C)[C@@H](O)[C@H](N(C)C)[C@H]2O)[C@@H](CCN2C[C@H](C)C[C@H](C)C2)C[C@@H](C)C(=O)/C=C/C(C)=C/[C@@H]1CO[C@@H]1O[C@H](C)[C@@H](O)[C@@H](OC)[C@H]1OC`: the synaptosome phagocytosis was 118%.

Turning to `Nc1ccccc1S(N)(=O)=O`, the synaptosome phagocytosis is 97.2%.

For `O=c1c(O)cc([C@H]2Oc3cc(O)cc(O)c3C[C@H]2O)cc2c([C@H]3Oc4cc(O)cc(O)c4C[C@H]3O)cc(O)c(O)c12`, the synaptosome phagocytosis is 96.6%.

As to `Cc1nc(C)c(Cl)c(O)c1Cl`, the synaptosome phagocytosis is 91.8%.

With `CC(=O)O[C@H]1CC[C@]2(C)[C@H]3CC=C4[C@@H]5CC(C)(C)CC[C@]5(C)CC[C@@]4(C)[C@]3(C)CC[C@H]2C1(C)C` [beta-AMYRIN ACETATE], the synaptosome phagocytosis is 113%.

For `C#C[C@]1(OC(C)=O)CC[C@H]2[C@@H]3CCC4=C[C@@H](OC(C)=O)CC[C@@H]4[C@H]3CC[C@@]21C`, the synaptosome phagocytosis was 70.5%.

Turning to `CC(CCC(=O)O)[C@H]1CCC2C3CC[C@@H]4CC(=O)CC[C@]4(C)C3C=C[C@@]21C` (stereo partly drawn), the synaptosome phagocytosis was 98.1%.

For the molecule `CCOC(=O)[N-]c1c[n+](N2CCOCC2)no1` [Molsidomine], the synaptosome phagocytosis is 83.1%.

Consider `CN(C(=O)CN(CCO)CC(=O)N(C)C(C)(C)Cc1ccccc1)C(C)(C)Cc1ccccc1`, for which the synaptosome phagocytosis was 112%.

For the molecule `COc1ccc(CN(CCN(C)C)c2ncccn2)cc1`, the synaptosome phagocytosis is 97.4%.

As for `C[N+](C)(C)CCOP(=O)(O)OP(=O)([O-])OC[C@H]1O[C@@H](n2ccc(N)nc2=O)[C@H](O)[C@@H]1O`, the synaptosome phagocytosis was 119%.

On to `OC[C@H]1O[C@@](CO)(O[C@H]2O[C@H](CO)[C@@H](O)[C@H](O)[C@H]2O)[C@@H](O[C@H]2O[C@H](CO)[C@@H](O)[C@H](O)[C@H]2O)[C@@H]1O`, for which the synaptosome phagocytosis was 121%.

For `CC(C)/C(O)=C1/C(=O)O[C@@H](c2ccoc2)[C@]2(C)C(O)[C@@H](O)[C@@]34OC5(C)OC67CC(C)(C(O)[C@]6(O)[C@@H](O)[C@]3(O5)C12)[C@H](CC(=O)O)[C@]74C` (stereo partly drawn), the synaptosome phagocytosis is 135%.

For `CCN1CCCC(OC(=O)C(c2ccccc2)c2ccccc2)C1` (stereo not drawn), the synaptosome phagocytosis is 107%.

With `Cc1cc(C)nc(NS(=O)(=O)c2ccc(N)cc2)n1`, the synaptosome phagocytosis was 120%.

Regarding `C=C1C(=O)[C@]23[C@H](CC[C@@H]1[C@@H]2O)[C@]12CO[C@@]3(O)[C@H](O)[C@H]1C(C)(C)CC[C@@H]2O`, the synaptosome phagocytosis was 68.6%.
